# Source: the supplement of paper PMC6411743
# ± gives the standard deviation of the averaged measurements. The list shows a part of the results, in another mix than the full data.
# Columns and labels:
# Assay in all cases: NP40-soluble protein abundance relative to vehicle (solubility fold change) (ratio); higher = more soluble protein in presence of ATP
# [1] = molecular target: T1, UniProt Q96GS4
# T1 sequence (whole entry): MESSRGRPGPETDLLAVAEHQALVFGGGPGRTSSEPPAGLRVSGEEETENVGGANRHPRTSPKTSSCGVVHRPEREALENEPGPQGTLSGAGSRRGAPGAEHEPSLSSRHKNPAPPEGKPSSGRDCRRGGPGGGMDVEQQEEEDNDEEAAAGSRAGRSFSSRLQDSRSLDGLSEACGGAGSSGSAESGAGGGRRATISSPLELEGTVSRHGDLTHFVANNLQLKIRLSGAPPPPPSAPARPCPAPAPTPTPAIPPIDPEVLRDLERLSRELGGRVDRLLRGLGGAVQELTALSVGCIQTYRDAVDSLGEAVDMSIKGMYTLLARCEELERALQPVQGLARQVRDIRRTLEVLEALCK
# In short: (§1)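 Jurkat crude lysate prepared with a Dounce homogeniser was treated at eight concentrations spanning 0.1 to 10 mM, 10 min at room temperature then 3 min at 37 °C. Solubilisation with 0.8% NP40 and benzonase and ultracentrifugation preceded TMT labelling of the supernatant for LC-MS/MS. Fold change against the detergent-processed vehicle was determined per replicate from vsn-normalised intensities, across three independent experiments.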
# [2] = molecular target: T2, UniProt Q96J84 and related entries
# T2 sequence (whole entry): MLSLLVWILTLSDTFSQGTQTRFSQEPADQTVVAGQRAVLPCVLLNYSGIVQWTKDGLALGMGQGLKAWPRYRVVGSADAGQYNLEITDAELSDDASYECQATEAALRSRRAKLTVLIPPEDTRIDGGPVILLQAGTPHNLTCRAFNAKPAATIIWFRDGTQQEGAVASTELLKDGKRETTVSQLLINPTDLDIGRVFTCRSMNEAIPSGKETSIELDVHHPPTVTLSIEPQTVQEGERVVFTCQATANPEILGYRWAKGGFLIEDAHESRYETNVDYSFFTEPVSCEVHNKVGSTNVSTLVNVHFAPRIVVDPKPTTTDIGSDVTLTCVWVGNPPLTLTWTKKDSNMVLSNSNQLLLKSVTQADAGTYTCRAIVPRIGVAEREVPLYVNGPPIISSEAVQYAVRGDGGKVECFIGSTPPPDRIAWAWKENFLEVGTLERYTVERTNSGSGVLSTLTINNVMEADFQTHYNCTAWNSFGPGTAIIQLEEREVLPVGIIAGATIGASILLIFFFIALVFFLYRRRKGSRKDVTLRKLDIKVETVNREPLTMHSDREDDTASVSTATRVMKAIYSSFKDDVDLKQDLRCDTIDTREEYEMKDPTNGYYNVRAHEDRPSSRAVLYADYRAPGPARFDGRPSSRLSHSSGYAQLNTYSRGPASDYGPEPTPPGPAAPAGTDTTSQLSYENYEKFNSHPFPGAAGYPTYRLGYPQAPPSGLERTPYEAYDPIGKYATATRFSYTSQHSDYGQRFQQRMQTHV
# In short: as §1
# [3] = molecular target: T3, UniProt Q96JY6 and related entries
# T3 sequence (whole entry): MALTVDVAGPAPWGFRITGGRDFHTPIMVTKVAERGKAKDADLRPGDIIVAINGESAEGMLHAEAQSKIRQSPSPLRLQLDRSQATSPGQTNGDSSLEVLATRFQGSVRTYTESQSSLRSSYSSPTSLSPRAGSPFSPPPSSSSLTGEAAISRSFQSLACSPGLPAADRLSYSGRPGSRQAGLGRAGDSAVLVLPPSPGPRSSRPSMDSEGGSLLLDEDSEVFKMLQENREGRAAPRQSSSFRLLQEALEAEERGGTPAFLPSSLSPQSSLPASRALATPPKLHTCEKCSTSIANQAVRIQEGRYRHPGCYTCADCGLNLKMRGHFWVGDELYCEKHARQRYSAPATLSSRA
# In short: as §1
# [4] = molecular target: T4, UniProt Q96KQ4
# T4 sequence (whole entry): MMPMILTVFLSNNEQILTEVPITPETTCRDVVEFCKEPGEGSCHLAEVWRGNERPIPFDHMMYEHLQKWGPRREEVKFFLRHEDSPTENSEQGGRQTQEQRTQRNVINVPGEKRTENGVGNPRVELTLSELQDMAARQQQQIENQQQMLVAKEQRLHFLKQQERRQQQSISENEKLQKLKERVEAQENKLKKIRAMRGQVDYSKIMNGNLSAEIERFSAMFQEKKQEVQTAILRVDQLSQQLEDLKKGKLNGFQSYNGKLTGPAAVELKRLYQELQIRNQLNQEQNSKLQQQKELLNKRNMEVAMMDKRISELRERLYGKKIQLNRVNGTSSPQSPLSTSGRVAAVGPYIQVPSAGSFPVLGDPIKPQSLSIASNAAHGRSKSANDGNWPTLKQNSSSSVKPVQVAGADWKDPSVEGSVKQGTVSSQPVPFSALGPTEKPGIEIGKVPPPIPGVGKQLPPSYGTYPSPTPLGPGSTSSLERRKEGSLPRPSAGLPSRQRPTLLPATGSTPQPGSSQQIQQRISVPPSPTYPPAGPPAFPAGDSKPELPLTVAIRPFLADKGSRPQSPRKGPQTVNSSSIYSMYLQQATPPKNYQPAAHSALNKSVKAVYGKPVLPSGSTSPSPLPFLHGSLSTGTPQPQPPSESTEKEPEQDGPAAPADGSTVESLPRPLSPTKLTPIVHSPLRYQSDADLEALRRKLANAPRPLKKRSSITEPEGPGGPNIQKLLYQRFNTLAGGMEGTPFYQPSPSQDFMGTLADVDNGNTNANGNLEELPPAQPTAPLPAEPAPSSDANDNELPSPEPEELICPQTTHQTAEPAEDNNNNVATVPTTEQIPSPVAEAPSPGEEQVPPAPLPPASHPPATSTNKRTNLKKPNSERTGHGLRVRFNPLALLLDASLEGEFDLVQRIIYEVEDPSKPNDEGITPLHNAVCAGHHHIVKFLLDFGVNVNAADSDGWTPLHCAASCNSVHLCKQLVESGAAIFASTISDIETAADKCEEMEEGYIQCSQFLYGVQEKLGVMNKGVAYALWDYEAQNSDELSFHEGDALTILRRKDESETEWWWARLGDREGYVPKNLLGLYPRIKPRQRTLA
# In short: as §1
# [5] = molecular target: T5, UniProt Q96QG7 and related entries
# T5 sequence (whole entry): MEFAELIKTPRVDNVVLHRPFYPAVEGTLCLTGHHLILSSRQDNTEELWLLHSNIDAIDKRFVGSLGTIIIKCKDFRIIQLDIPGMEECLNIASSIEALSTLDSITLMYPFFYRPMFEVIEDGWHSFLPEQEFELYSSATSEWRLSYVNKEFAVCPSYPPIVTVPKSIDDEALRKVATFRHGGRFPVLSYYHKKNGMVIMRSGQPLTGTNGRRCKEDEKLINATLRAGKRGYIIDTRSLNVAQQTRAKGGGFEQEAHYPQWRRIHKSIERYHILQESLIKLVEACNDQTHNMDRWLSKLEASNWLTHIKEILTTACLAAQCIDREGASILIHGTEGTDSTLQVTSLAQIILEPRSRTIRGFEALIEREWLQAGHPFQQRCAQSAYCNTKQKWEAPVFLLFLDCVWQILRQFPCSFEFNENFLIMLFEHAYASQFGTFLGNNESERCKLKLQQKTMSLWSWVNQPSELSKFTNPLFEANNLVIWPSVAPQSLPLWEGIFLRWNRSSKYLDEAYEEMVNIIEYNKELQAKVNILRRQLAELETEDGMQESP
# In short: as §1
compound,measurement,setting,value
Nc1ncnc2c1ncn2[C@@H]1O[C@H](COP(=O)(O)OP(=O)(O)OP(=O)(O)O)[C@@H](O)[C@H]1O [adenosine triphosphate],NP40-soluble protein abundance,[1]; concentration: 1mM,0.935 ± 0.048
same,NP40-soluble protein abundance,[1]; concentration: 2mM,0.953 ± 0.066
same,NP40-soluble protein abundance,[1]; concentration: 4mM,0.955 ± 0.061
same,NP40-soluble protein abundance,[1]; concentration: 6mM,0.964 ± 0.035
same,NP40-soluble protein abundance,[1]; concentration: 8mM,0.901 ± 0.056
same,NP40-soluble protein abundance,[1]; concentration: 10mM,0.902 ± 0.067
same,NP40-soluble protein abundance,[2]; concentration: 1mM,0.978 ± 0.1
same,NP40-soluble protein abundance,[2]; concentration: 2mM,1.005 ± 0.0079
same,NP40-soluble protein abundance,[2]; concentration: 4mM,1.07 ± 0.15
same,NP40-soluble protein abundance,[2]; concentration: 6mM,1.028 ± 0.0099
same,NP40-soluble protein abundance,[2]; concentration: 8mM,0.997 ± 0.062
same,NP40-soluble protein abundance,[2]; concentration: 10mM,1.05 ± 0.029
same,NP40-soluble protein abundance,[3]; concentration: 1mM,0.903 ± 0.077
same,NP40-soluble protein abundance,[3]; concentration: 2mM,0.922 ± 0.065
same,NP40-soluble protein abundance,[3]; concentration: 4mM,0.94 ± 0.05
same,NP40-soluble protein abundance,[3]; concentration: 6mM,0.95 ± 0.022
same,NP40-soluble protein abundance,[3]; concentration: 8mM,0.915 ± 0.025
same,NP40-soluble protein abundance,[3]; concentration: 10mM,0.915 ± 0.016
same,NP40-soluble protein abundance,[4]; concentration: 1mM,1.03 ± 0.064
same,NP40-soluble protein abundance,[4]; concentration: 2mM,0.99 ± 0.098
same,NP40-soluble protein abundance,[4]; concentration: 4mM,1.12 ± 0.039
same,NP40-soluble protein abundance,[4]; concentration: 6mM,1.04 ± 0.087
same,NP40-soluble protein abundance,[4]; concentration: 8mM,1.07 ± 0.12
same,NP40-soluble protein abundance,[4]; concentration: 10mM,1.05 ± 0.16
same,NP40-soluble protein abundance,[5]; concentration: 1mM,1.08 ± 0.085
same,NP40-soluble protein abundance,[5]; concentration: 2mM,1.05 ± 0.093
same,NP40-soluble protein abundance,[5]; concentration: 4mM,1.04 ± 0.14
same,NP40-soluble protein abundance,[5]; concentration: 6mM,1.03 ± 0.12
same,NP40-soluble protein abundance,[5]; concentration: 8mM,1.07 ± 0.081
same,NP40-soluble protein abundance,[5]; concentration: 10mM,1.02 ± 0.059

# Fetched one by one from the list above:
compound,measurement,setting,value
Nc1ncnc2c1ncn2[C@@H]1O[C@H](COP(=O)(O)OP(=O)(O)OP(=O)(O)O)[C@@H](O)[C@H]1O [adenosine triphosphate],NP40-soluble protein abundance,[2]; concentration: 1mM,0.978 ± 0.1
same,NP40-soluble protein abundance,[3]; concentration: 2mM,0.922 ± 0.065
